Source: US20220227763A1, “MICROBIOCIDAL DERIVATIVES” (SYNGENTA CROP PROTECTION AG, priority 2019, published 2022)
Some results were stated once for a whole list of compounds, not compound by compound.

Tested on: Magnaporthe grisea (Pyricularia oryzae)
Format: in vivo
Conditions: 200 ppm; rice leaf segments cv. Ballila, preventative, inoculated 2 days after application, assessed 5-7 days after application; compared to untreated control

Structure (SMILES)	control of Magnaporthe grisea
CC1(C)CCC1NC(=O)c1nc(Nc2cc(F)cc(F)c2)cc2cn[nH]c12 (stereo not drawn) [Compound P-6, 5-(3,5-difluoroanilino)-N-(2,2-dimethylcyclobutyl)-1H-pyrazolo[3,4-c]pyridine-7-carboxamide]	at least 80%
CC1(C)CCC1NC(=O)c1nc(Nc2ccnc(F)c2)cc2cn[nH]c12 (stereo not drawn) [Compound P-7, N-(2,2-dimethylcyclobutyl)-5-[(2-fluoro-4-pyridyl)amino]-1H-pyrazolo[3,4-c]pyridine-7-carboxamide]	at least 80%
CC1(C)CCC1NC(=O)c1nc(Nc2cc(F)nc(F)c2)cc2cn[nH]c12 (stereo not drawn) [Compound P-8, 5-[(2,6-difluoro-4-pyridyl)amino]-N-(2,2-dimethylcyclobutyl)-1H-pyrazolo[3,4-c]pyridine-7-carboxamide]	at least 80%
